# Measured values published in the supplement of paper PMC10849652.
# By UniProt entry, the sequences of proteins in these tests, tags left out. Where a name states a change or a piece, a line headed by the entry shows the natural chain unless it says otherwise.
# UniProt Q5TA50: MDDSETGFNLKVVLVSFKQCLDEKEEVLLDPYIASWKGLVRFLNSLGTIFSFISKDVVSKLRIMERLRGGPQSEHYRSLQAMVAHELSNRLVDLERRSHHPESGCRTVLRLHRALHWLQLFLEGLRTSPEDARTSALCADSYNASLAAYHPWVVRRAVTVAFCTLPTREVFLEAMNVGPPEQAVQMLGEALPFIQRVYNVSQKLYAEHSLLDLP
# UniProt Q7Z4G1, whole entry, looked up: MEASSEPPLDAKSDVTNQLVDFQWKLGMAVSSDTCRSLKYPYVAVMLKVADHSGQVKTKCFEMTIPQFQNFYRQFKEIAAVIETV
# UniProt P02452, whole entry, looked up: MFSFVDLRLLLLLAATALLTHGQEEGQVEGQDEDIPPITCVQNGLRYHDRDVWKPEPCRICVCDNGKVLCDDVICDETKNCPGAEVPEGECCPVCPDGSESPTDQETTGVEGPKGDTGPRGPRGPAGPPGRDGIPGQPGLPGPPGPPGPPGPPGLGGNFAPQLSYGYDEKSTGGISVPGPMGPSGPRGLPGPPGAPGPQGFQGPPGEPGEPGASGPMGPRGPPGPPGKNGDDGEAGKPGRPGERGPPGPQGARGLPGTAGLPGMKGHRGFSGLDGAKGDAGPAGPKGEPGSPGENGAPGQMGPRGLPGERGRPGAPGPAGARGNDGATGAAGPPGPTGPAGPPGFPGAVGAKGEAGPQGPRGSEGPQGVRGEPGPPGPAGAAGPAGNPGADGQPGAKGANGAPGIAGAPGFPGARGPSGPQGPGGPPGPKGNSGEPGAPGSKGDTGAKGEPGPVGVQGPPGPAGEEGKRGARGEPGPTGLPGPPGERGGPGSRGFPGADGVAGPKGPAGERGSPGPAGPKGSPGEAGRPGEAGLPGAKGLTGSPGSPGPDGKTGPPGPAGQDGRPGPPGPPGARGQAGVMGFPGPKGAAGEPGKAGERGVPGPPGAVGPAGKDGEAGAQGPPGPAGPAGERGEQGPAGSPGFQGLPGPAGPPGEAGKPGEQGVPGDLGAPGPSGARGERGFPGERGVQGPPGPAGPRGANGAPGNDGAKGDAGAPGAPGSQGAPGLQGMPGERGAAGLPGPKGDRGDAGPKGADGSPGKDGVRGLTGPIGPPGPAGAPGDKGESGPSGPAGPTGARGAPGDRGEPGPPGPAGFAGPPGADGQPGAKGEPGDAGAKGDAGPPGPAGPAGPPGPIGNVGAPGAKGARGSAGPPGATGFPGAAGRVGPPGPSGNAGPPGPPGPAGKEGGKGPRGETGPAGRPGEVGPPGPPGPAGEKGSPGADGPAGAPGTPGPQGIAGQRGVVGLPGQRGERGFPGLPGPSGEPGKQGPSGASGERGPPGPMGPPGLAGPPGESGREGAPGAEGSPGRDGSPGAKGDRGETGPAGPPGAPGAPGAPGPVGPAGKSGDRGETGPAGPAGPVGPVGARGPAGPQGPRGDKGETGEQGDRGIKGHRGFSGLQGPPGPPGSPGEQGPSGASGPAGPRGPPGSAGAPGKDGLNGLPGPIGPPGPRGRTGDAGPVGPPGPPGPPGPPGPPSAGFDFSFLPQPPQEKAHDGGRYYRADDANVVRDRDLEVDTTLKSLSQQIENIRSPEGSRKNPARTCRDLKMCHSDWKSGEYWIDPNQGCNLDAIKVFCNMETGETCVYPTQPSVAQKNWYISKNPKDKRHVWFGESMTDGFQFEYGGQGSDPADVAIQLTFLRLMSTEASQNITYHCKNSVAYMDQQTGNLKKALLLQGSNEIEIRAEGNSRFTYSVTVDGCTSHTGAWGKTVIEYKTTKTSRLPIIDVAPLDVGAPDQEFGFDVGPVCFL
# UniProt Q9H3G5: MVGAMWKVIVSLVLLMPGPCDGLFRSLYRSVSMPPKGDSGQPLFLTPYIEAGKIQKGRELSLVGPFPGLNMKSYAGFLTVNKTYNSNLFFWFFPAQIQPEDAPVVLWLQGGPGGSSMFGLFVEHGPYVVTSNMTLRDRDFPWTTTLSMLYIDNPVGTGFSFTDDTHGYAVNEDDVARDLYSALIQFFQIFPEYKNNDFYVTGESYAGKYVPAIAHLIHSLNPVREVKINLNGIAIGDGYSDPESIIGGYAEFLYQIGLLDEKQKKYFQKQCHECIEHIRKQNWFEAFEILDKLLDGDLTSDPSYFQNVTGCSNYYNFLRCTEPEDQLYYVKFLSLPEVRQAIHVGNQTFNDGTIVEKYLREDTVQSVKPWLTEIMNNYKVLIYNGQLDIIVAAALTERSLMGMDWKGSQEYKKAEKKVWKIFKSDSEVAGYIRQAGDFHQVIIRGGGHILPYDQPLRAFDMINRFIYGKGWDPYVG
# UniProt Q9UI42: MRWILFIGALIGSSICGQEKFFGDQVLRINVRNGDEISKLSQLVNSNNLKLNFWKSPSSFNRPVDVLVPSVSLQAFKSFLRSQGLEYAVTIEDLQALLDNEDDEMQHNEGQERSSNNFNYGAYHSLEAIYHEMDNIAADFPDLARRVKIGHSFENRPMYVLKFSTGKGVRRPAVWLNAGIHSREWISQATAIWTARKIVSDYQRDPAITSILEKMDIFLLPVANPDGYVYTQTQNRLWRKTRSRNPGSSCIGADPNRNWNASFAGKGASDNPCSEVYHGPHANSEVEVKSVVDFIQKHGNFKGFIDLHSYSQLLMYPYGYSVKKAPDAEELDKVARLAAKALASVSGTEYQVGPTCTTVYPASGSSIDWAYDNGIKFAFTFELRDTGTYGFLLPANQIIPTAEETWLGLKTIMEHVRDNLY
# UniProt Q8N4Y2: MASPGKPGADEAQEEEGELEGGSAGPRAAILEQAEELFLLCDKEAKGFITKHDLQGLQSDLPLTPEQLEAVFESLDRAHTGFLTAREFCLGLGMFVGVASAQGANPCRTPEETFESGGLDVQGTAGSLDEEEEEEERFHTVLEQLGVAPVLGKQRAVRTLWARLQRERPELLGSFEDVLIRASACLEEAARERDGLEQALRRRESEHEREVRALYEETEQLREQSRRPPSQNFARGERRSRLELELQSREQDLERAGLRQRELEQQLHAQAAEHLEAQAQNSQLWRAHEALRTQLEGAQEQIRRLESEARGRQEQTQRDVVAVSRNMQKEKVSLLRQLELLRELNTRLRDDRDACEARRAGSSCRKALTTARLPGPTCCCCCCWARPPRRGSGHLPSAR
# UniProt Q9UNS2: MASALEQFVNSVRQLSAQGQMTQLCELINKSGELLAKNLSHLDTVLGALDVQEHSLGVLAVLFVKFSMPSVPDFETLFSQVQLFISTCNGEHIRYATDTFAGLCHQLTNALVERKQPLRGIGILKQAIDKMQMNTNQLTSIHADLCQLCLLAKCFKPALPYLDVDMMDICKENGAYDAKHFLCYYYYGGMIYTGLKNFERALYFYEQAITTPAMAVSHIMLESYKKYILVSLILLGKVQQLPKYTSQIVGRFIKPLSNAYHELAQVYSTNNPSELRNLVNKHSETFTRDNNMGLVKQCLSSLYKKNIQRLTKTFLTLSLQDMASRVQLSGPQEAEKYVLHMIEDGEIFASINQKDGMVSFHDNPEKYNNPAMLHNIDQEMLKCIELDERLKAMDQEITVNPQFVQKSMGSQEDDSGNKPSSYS
# UniProt Q96FN4: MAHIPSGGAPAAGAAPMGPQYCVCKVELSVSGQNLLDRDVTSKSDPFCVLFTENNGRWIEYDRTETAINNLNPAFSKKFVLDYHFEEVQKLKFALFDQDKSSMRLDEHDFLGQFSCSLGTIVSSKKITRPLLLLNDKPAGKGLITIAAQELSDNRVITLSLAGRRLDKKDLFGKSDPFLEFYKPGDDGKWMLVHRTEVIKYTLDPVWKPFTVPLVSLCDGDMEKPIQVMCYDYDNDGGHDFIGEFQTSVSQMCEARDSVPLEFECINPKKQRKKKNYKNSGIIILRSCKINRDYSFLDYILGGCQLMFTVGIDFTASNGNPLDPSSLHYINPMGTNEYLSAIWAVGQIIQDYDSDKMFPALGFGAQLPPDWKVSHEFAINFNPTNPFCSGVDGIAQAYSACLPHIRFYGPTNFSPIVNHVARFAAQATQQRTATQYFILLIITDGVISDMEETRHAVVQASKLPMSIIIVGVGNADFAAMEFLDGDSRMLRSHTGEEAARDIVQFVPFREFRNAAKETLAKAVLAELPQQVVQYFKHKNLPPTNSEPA
# UniProt G9CGD6: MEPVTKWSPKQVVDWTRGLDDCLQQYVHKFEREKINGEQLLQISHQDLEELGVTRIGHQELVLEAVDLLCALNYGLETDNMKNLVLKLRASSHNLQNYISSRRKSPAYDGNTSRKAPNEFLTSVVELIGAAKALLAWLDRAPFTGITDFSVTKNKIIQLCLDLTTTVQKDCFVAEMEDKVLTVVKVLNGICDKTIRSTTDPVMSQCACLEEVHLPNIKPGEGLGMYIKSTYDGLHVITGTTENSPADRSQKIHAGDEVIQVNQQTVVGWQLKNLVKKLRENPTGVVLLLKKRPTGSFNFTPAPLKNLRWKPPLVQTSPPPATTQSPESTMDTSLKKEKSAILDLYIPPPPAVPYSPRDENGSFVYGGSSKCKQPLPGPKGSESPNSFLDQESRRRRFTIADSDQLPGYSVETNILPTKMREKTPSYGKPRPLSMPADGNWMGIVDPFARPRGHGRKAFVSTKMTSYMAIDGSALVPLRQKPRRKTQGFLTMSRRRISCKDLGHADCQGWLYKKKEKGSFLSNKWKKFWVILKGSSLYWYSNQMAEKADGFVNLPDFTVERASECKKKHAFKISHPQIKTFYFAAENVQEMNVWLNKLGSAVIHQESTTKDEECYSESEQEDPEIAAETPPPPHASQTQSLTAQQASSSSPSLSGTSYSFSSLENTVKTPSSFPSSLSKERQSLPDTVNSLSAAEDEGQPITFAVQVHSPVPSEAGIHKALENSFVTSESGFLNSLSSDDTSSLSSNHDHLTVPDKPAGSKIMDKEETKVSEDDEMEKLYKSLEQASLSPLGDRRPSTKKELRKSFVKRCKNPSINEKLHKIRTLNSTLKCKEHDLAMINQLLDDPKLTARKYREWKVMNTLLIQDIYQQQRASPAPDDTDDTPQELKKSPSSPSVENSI
# UniProt Q96F85: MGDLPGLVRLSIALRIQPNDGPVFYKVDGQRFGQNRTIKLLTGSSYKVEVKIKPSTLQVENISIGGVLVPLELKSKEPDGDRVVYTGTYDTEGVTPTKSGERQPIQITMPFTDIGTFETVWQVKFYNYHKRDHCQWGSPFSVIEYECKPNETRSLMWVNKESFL
# UniProt Q86WW8: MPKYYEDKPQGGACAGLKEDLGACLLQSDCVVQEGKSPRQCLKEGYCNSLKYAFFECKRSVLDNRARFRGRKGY
# UniProt Q8N9A8: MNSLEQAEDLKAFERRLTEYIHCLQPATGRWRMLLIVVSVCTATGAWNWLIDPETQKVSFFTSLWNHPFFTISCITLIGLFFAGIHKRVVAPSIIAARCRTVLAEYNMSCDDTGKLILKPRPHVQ
# UniProt Q9P003: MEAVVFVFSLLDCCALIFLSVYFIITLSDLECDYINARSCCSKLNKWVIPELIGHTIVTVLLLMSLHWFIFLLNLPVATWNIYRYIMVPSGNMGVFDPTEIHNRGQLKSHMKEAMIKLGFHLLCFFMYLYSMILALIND
# UniProt Q12887: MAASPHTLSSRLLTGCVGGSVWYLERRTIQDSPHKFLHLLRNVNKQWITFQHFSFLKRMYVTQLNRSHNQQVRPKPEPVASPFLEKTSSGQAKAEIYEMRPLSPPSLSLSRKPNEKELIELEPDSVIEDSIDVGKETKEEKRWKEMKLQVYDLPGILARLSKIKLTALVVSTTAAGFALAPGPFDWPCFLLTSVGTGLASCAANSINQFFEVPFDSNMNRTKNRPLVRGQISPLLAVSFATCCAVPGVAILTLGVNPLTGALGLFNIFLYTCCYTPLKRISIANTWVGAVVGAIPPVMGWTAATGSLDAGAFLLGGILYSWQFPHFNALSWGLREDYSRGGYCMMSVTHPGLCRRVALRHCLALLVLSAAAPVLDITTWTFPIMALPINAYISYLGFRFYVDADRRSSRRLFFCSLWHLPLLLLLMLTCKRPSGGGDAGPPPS
# UniProt Q14061: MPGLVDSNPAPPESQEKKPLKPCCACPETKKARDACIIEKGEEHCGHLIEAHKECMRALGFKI
# The other results are listed elsewhere or left out.
# Assays:
# Assay in all cases: log2 fold change, soluble protein after heating vs DMSO (PISA); higher = thermal stabilisation; K562 lysate, 10 uM; active = over 0.2 and 3.5 SD of the protein, either way, in both replicates (recomputed)
# vemurafenib = compound: CCCS(=O)(=O)Nc1ccc(F)c(C(=O)c2c[nH]c3ncc(-c4ccc(Cl)cc4)cc23)c1F [vemurafenib]
# How it was run: (§1)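 K562 pellets were dounce-homogenised in PBS pH 7.4 with 1 mM MgCl2, and the crude extract at 1 mg/mL protein was treated with 10 μM compound for 30 min. Aliquots were heated for 3 min across 48°C-58°C, pooled, and brought to 0.5% NP-40 at 4°C; soluble protein was the supernatant after 21,000xg for 90 min. Soluble protein was quantified by TMTpro 16plex LC-MS/MS with channel sums equalised, and reported as log2 fold change in thermal stability against DMSO controls, with values from duplicates.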
# [1] = compound: CC[C@@H]1C(=O)N(C)c2cnc(Nc3ccc(C(=O)NC4CCN(C)CC4)cc3OC)nc2N1C1CCCC1
# How it was run: as §1
# [2] = compound: CCn1c(C(=O)N(C2CC2)C2CC2)cc2c3c(ncn3C)c(Nc3cc(C)n(C)n3)nc21
# How it was run: as §1
# [3] = compound: CCn1cc(-c2ccnc3[nH]c(-c4cccc(CN(C)C)c4)cc23)c(-c2ccc(NC(=O)N(C)C)cc2)n1
# How it was run: as §1
# [4] = compound: CN1CCC(CNc2ccc3ncc(-c4cccc(OC(F)(F)F)c4)n3n2)CC1
# How it was run: as §1
# saracatinib = compound: CN1CCN(CCOc2cc(OC3CCOCC3)c3c(Nc4c(Cl)ccc5c4OCO5)ncnc3c2)CC1 [saracatinib]
# How it was run: as §1
# sotrastaurin = compound: CN1CCN(c2nc(C3=C(c4c[nH]c5ccccc45)C(=O)NC3=O)c3ccccc3n2)CC1 [sotrastaurin]
# How it was run: as §1
# alvocidib = compound: CN1CC[C@H](c2c(O)cc(O)c3c(=O)cc(-c4ccccc4Cl)oc23)[C@H](O)C1 [alvocidib]
# How it was run: as §1
# Tubastatin A = compound: CN1CCc2c(c3ccccc3n2Cc2ccc(C(=O)NO)cc2)C1 [Tubastatin A]
# How it was run: as §1
# [5] = compound: CNC(=O)C1=CC=CC=C1NC2=NC(=NC=C2Cl)NC3=C(C=C(C=C3)N4CCOCC4)OC
# How it was run: as §1
# defactinib = compound: CNC(=O)c1ccc(Nc2ncc(C(F)(F)F)c(NCc3nccnc3N(C)S(C)(=O)=O)n2)cc1 [defactinib]
# How it was run: as §1
# [6] = compound: CNc1nc(-c2ccc3c(N)n[nH]c3c2)cc(N2C[C@@H](C(=O)NC3CCCCC3)CC[C@H]2C)n1
# How it was run: as §1
# encorafenib = compound: COC(=O)N[C@@H](C)CNc1nccc(-c2cn(C(C)C)nc2-c2cc(Cl)cc(NS(C)(=O)=O)c2F)n1 [encorafenib]
# How it was run: as §1
# [7] = compound: COC(=O)[C@H](CCSC)NC(=O)C1=C(C=C(C=C1)NC[C@H](CS)N)C2=CC=CC=C2
# How it was run: as §1
# alisertib = compound: COc1cc(Nc2ncc3c(n2)-c2ccc(Cl)cc2C(c2c(F)cccc2OC)=NC3)ccc1C(=O)O [alisertib]
# How it was run: as §1
# gefitinib = compound: COc1cc2ncnc(Nc3ccc(F)c(Cl)c3)c2cc1OCCCN1CCOCC1 [gefitinib]
# How it was run: as §1
# [8] = compound: CCCS(=O)(=O)Nc1ccc(F)c(C(=O)c2c[nH]c3ncc(Cl)cc23)c1F
# How it was run: as §1
# barasertib = compound: CCN(CCCOc1ccc2c(Nc3cc(CC(=O)Nc4cccc(F)c4)[nH]n3)ncnc2c1)CCOP(=O)(O)O [barasertib]
# How it was run: as §1
# volasertib = compound: CC[C@@H]1C(=O)N(C)c2cnc(Nc3ccc(C(=O)N[C@H]4CC[C@H](N5CCN(CC6CC6)CC5)CC4)cc3OC)nc2N1C(C)C [volasertib]
# How it was run: as §1
# [9] = compound: COc1cc2nc(-c3cc(F)ccc3O)nc(N[C@@H]3CNC[C@H]3C(C)(C)O)c2cc1OC
# How it was run: as §1
Target,log2 fold change (vemurafenib),log2 fold change [1],log2 fold change [2],log2 fold change [3],log2 fold change [4],log2 fold change (saracatinib),log2 fold change (sotrastaurin),log2 fold change (alvocidib),log2 fold change (Tubastatin A),log2 fold change [5],log2 fold change (defactinib),log2 fold change [6],log2 fold change (encorafenib),log2 fold change [7],log2 fold change (alisertib),log2 fold change (gefitinib),log2 fold change [8],log2 fold change (barasertib),log2 fold change (volasertib),log2 fold change [9]
CPTP (UniProt Q5TA50),inactive: -0.054,inactive: -0.006,inactive: 0.025,inactive: -0.01,inactive: -0.03,inactive: 0.001,inactive: 0.074,inactive: -0.057,inactive: -0.03,inactive: -0.027,inactive: 0.067,inactive: 0.065,inactive: 0.07,inactive: 0.118,inactive: 0.038,inactive: -0.012,,,,
COMMD6 isoform 2 (UniProt Q7Z4G1),,inactive: -0.106,inactive: 0.14,inactive: 0.013,inactive: -0.087,inactive: -0.03,inactive: 0.028,inactive: 0.063,inactive: -0.064,inactive: 0.054,,inactive: -0.133,inactive: 0.046,inactive: -0.035,inactive: -0.051,inactive: -0.159,inactive: -0.007,inactive: 0.28,inactive: -0.143,inactive: 0.071
COL1A1 (UniProt P02452),,,,inactive: 0.009,inactive: 0.066,,,inactive: -0.024,,inactive: -0.196,,,,,,,,,,
CPVL (UniProt Q9H3G5),inactive: 0.108,,inactive: -0.035,inactive: -0.107,inactive: 0.097,inactive: 0.084,inactive: -0.049,inactive: -0.054,inactive: 0.137,inactive: 0.008,inactive: -0.137,inactive: 0.173,,,inactive: 0.06,inactive: -0.063,inactive: -0.035,inactive: -0.094,inactive: 0.019,inactive: 0.036
CPA4 (UniProt Q9UI42),,,inactive: -0.062,inactive: 0.084,inactive: -0.148,,inactive: 0.019,inactive: 0.113,inactive: -0.101,inactive: -0.182,,,,,,,inactive: 0.142,inactive: 0.357,inactive: 0.046,inactive: -0.094
CNOT7 (UniProt H0YBT3),,,inactive: -0.132,inactive: -0.04,inactive: -0.222,,inactive: -0.011,inactive: 0.051,inactive: 0.091,,,,,,,,,,,
CRACR2B (UniProt Q8N4Y2),,,,,,inactive: -0.032,,,,inactive: 0.051,,inactive: 0.041,,,,,,,,
COPS3 isoform 2 (UniProt Q9UNS2),inactive: 0.059,inactive: 0.021,,inactive: -0.142,inactive: 0.12,,,inactive: -0.207,,,inactive: -0.142,,inactive: -0.101,inactive: 0.014,inactive: -0.074,inactive: -0.013,inactive: -0.049,,inactive: -0.11,inactive: 0.455
CPNE2 (UniProt Q96FN4),,inactive: -0.063,inactive: 0.047,inactive: -0.274,inactive: 0.219,inactive: 0.009,inactive: 0.05,inactive: -0.234,inactive: 0.004,inactive: 0.016,,inactive: 0.067,inactive: 0.012,inactive: -0.063,inactive: 0.015,inactive: -0.086,inactive: 0.001,inactive: 0.032,inactive: -0.076,inactive: -0.01
CNTROB isoform 2 (UniProt Q8N137),,,,,,inactive: -0.002,,,,inactive: 0.066,,inactive: -0.236,,,,,,,,
CNK3/IPCEF1 isoform 2 (UniProt G9CGD6),inactive: -0.062,inactive: 0.056,inactive: 0.078,active: -1.81,inactive: 0.506,inactive: 0.053,,inactive: -0.483,inactive: -0.048,inactive: -0.012,inactive: -0.082,inactive: -0.007,inactive: 0.041,inactive: -0.062,,,,,,
CNRIP1 (UniProt Q96F85),inactive: 0.103,,inactive: -0.174,,,inactive: 0.021,inactive: 0.076,,inactive: -0.187,inactive: 0.037,inactive: -0.486,inactive: -0.038,,,,,inactive: -0.043,inactive: -0.317,inactive: 0,inactive: 0.124
COA5 (UniProt Q86WW8),inactive: -0.02,inactive: 0.129,inactive: -0.07,inactive: 0.162,inactive: -0.029,inactive: 0.018,inactive: 0.01,inactive: 0.125,inactive: -0.074,inactive: 0.091,inactive: -0.018,inactive: 0.002,inactive: -0.012,inactive: 0.05,,,,inactive: -0.104,,
CNEP1R1 isoform 2 (UniProt Q8N9A8),,,,,,,,,,,,,,,inactive: 0.263,inactive: -0.098,,inactive: 0.074,,
CNIH4 (UniProt Q9P003),inactive: 0.217,inactive: 0.051,inactive: -0.19,,,inactive: 0.021,inactive: 0.066,,inactive: 0.1,inactive: 0.048,inactive: 0.442,inactive: 0.049,inactive: 0.06,inactive: -0.249,inactive: 0.1,inactive: 0.17,inactive: 0.064,inactive: 0.585,inactive: -0.077,inactive: 0.031
COX10 (UniProt Q12887),,inactive: 0.11,inactive: -0.099,,,inactive: 0.031,inactive: 0.005,,inactive: 0.072,,,inactive: 0.174,inactive: -0.22,inactive: -0.157,,,,,,
CNNM2 (UniProt Q9H8M5),inactive: 0.025,inactive: 0,inactive: -0.091,inactive: -0.059,inactive: 0.036,inactive: -0.039,inactive: 0.091,inactive: -0.049,inactive: -0.105,inactive: 0.007,inactive: 0.065,inactive: -0.01,inactive: -0.048,inactive: 0.033,,,inactive: 0.024,,inactive: -0.043,inactive: -0.003
COL6A3 (UniProt P12111),,,inactive: 0.086,inactive: 0.254,inactive: -0.19,inactive: -0.039,inactive: 0.031,inactive: 0.045,inactive: 0.017,inactive: -0.126,,inactive: 0.13,,,inactive: -0.323,inactive: 0.164,,inactive: 0.347,,
CPEB3 (UniProt Q8NE35),,,inactive: -0.057,,,,inactive: 0.009,,inactive: 0.14,inactive: 0.065,,,,,,,,,,
COX17 (UniProt Q14061),,,,inactive: 0.083,inactive: -0.055,,inactive: 0.114,inactive: 0.078,,inactive: 0.113,,,,,inactive: 0.04,inactive: 0.153,inactive: -0.019,,inactive: 0.056,inactive: -0.08

# Nothing new here: an excerpt of the list.
Target,log2 fold change (vemurafenib),log2 fold change [1],log2 fold change [2],log2 fold change [3],log2 fold change [4],log2 fold change (saracatinib),log2 fold change (sotrastaurin),log2 fold change (alvocidib),log2 fold change (Tubastatin A),log2 fold change [5],log2 fold change (defactinib),log2 fold change [6],log2 fold change (encorafenib),log2 fold change [7],log2 fold change (alisertib),log2 fold change (gefitinib),log2 fold change [8],log2 fold change (barasertib),log2 fold change (volasertib),log2 fold change [9]
CNOT7 (UniProt H0YBT3),,,inactive: -0.132,inactive: -0.04,inactive: -0.222,,inactive: -0.011,inactive: 0.051,inactive: 0.091,,,,,,,,,,,
CRACR2B (UniProt Q8N4Y2),,,,,,inactive: -0.032,,,,inactive: 0.051,,inactive: 0.041,,,,,,,,
